In patent US12656341:
These are yes or no findings as the source states them, for the method shown. Some binding calls cover weakened binding; strength is not graded here. For some assays here: Sequences can lack the tags named with a protein.

Chains of the proteins cited; added tags and fusions are not shown. Residues count along the entry.
UniProt P05555, residues 17-1153: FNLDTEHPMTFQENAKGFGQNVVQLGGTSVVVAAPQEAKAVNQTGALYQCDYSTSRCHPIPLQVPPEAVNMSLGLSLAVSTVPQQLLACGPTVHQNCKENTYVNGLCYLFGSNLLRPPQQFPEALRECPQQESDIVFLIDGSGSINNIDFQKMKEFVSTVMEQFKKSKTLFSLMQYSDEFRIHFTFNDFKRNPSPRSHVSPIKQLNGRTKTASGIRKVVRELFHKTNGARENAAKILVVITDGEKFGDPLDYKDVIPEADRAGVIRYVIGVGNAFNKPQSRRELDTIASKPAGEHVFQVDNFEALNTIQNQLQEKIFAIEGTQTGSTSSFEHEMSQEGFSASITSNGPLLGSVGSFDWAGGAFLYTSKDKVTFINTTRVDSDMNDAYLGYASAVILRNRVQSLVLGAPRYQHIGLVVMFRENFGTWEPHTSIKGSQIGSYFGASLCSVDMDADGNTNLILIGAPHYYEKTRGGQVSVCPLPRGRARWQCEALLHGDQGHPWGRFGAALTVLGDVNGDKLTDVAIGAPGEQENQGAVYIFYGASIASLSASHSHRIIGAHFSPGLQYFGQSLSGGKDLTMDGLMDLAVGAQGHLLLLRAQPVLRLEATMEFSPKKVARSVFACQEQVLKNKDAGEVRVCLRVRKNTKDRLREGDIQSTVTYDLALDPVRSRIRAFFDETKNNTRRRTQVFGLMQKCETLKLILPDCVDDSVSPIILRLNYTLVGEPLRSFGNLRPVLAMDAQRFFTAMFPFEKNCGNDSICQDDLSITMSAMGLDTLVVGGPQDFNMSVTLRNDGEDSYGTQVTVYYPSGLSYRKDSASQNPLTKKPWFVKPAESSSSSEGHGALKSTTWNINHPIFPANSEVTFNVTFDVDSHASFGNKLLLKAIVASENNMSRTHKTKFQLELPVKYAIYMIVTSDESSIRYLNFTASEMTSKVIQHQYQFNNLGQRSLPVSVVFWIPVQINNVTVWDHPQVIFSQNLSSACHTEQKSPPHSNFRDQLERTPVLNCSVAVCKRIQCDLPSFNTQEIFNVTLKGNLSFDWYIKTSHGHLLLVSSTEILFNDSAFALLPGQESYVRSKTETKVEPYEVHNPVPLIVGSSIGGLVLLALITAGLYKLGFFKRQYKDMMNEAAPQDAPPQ

B1: lipidated VHH DC13 (VHH DC13 conjugated to DMA-PEG-G5 by sortase A) (VHH)
VHH: QVQLQESGGGLVQAGGSHNLSCTASGITFSSLAMGWFRQTPGKEREFVANIMRSGSSVFYADSVRGRFTISRDNAKNTAHLQMNSLKPEDTAVYFCAATRGAWPAEYWGQGTQVTVSS
B2: VHH DC13 (native, LPETG- and His6-tagged single-domain antibody) (VHH)
VHH: B1 VHH

Key:
[1] = biological target: CD11b on murine myeloid-derived suppressor CD11b+Gr-1+ cells (MDSC) (murine) (UniProt P05555); assay: flow cytometry on CD11b+Gr-1+ cells, 500 nM VHH, FITC-anti-llama detection
[2] = biological target: CD11b on murine myeloid-derived suppressor CD11b+Gr-1+ cells (MDSC) (murine) (UniProt P05555); assay: flow cytometry, liposomes with different VHH to phospholipid ratios on murine CD11b+Gr-1+ cells
[3] = biological target: CD11b on murine myeloid-derived suppressor CD11b+Gr-1+ cells (MDSC) (murine) (UniProt P05555); assay: flow cytometry, FITC-dextran liposomes with post-inserted lipidated VHH on murine CD11b+Gr-1+ cells
[4] = biological target: CD11b on murine myeloid-derived suppressor CD11b+Gr-1+ cells (MDSC) (murine) (UniProt P05555); assay: flow cytometry, liposomes with different VHH to phospholipid ratios on murine CD11b+Gr-1+ cells (FIG. 9 legend)

Binder | binding [1] | binding [2] | binding [3] | binding [4]
B1 | binds | binds | binds | binds
B2 | binds | – | – | –
